Source: PubChem BioAssay AID1671195 (Yale University, 2021)

Assay: 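Knockdowns that increase or decrease uptake of fluorescent LDL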 (primary screen)
Cells: human Huh7 hepatoma cells
Reagents: siRNA pool against human genes, 18 nM
Duration: about 2 to 2.5 days of knockdown, then 8 h LDL uptake
Challenge: DiI-labelled LDL at 30 µg/ml for 8 h, in lipoprotein-deficient serum medium
Measured: 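Per-cell DiI-LDL intensity by automated imaging; well means scaled to the plate median and given as a robust z-score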
Scale: robust z-score: higher = more LDL uptake after knockdown
Rule for the call: 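a gene counts as active if at least two replicate z-scores exceed ±2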
Shown is a random part of about 22,000 reagents. About 1,510 of all reagents (6.9%) count as active. 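Active includes knockdowns raising or lowering LDL uptake; positive z-scores mean more uptake, negative mean less.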 Unmarked entries are inactive. No sequences are given here.

GBX2 (gastrulation brain homeobox 2) → robust z-score, replicate 1 = 3.6 (active); robust z-score, replicate 2 = 5.01; robust z-score, replicate 3 = 4.04
LMAN1L (lectin, mannose binding 1 like) → robust z-score, replicate 1 = -1.32; robust z-score, replicate 2 = -1.58; robust z-score, replicate 3 = -1.46
LHX5 (LIM homeobox 5) → robust z-score, replicate 1 = 0.911; robust z-score, replicate 2 = 2.11; robust z-score, replicate 3 = 1.15
PPP1R12BP1 (protein phosphatase 1 regulatory subunit 12B pseudogene 1) → robust z-score, replicate 1 = -0.304; robust z-score, replicate 2 = 0.286; robust z-score, replicate 3 = -0.549
CCDC25 (coiled-coil domain containing 25) → robust z-score, replicate 1 = 1.2; robust z-score, replicate 2 = -0.133; robust z-score, replicate 3 = -1
HCFC1R1 (host cell factor C1 regulator 1) → robust z-score, replicate 1 = 0.649; robust z-score, replicate 2 = 0.997; robust z-score, replicate 3 = 0.246
HIVEP1 (HIVEP zinc finger 1) → robust z-score, replicate 1 = -0.221; robust z-score, replicate 2 = -1.7; robust z-score, replicate 3 = -0.79
LOC440856 (retired record) → robust z-score, replicate 1 = -1.74; robust z-score, replicate 2 = -0.857; robust z-score, replicate 3 = -0.349
LRRC14 (leucine rich repeat containing 14) → robust z-score, replicate 1 = 0.388; robust z-score, replicate 2 = 0.551; robust z-score, replicate 3 = -1.56
LOC440596 (retired record) → robust z-score, replicate 1 = -1.02; robust z-score, replicate 2 = -1.27; robust z-score, replicate 3 = -0.94
ANKRD23 (ankyrin repeat domain 23) → robust z-score, replicate 1 = 0.197; robust z-score, replicate 2 = -0.516; robust z-score, replicate 3 = -0.0239
CDC20B (cell division cycle 20B) → robust z-score, replicate 1 = -1.01; robust z-score, replicate 2 = -0.736; robust z-score, replicate 3 = -0.772
LOC391840 (retired record) → robust z-score, replicate 1 = -0.55; robust z-score, replicate 2 = -0.143; robust z-score, replicate 3 = -0.0596
SEC14L2 (SEC14 like lipid binding 2) → robust z-score, replicate 1 = -0.471; robust z-score, replicate 2 = 0.704; robust z-score, replicate 3 = -0.916
KAT6A (lysine acetyltransferase 6A) → robust z-score, replicate 1 = -0.595; robust z-score, replicate 2 = -0.786; robust z-score, replicate 3 = 0.276
TXN (thioredoxin) → robust z-score, replicate 1 = 2.34 (active); robust z-score, replicate 2 = 2.81; robust z-score, replicate 3 = 2.19
CMTR1 (cap methyltransferase 1) → robust z-score, replicate 1 = -1.49; robust z-score, replicate 2 = -0.952; robust z-score, replicate 3 = -0.988
LSM4 → robust z-score, replicate 1 = 0.472; robust z-score, replicate 2 = 0.764; robust z-score, replicate 3 = 1.05
IFNL1 (interferon lambda 1) → robust z-score, replicate 1 = -1.82; robust z-score, replicate 2 = -1.84; robust z-score, replicate 3 = -1.71
SMC1A (structural maintenance of chromosomes 1A) → robust z-score, replicate 1 = -1.79; robust z-score, replicate 2 = -1.65; robust z-score, replicate 3 = -1.4
ATG2A (autophagy related 2A) → robust z-score, replicate 1 = -0.139; robust z-score, replicate 2 = -0.854; robust z-score, replicate 3 = 0.688
ATP6V1A (ATPase H+ transporting V1 subunit A) → robust z-score, replicate 1 = 0.553; robust z-score, replicate 2 = 0.49; robust z-score, replicate 3 = 1.09
ALDH16A1 (aldehyde dehydrogenase 16 family member A1) → robust z-score, replicate 1 = -0.383; robust z-score, replicate 2 = -0.42; robust z-score, replicate 3 = -0.916
B3GNT3 → robust z-score, replicate 1 = 0.571; robust z-score, replicate 2 = 2.33; robust z-score, replicate 3 = 1.45
